PubChem BioAssay AID1259254 – NCATS | 2017

Screen: 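Genome-wide screen for genes that prevent DNA re-replication in cancer cells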 (primary screen)
System: human HCT116 colorectal cancer cells
Reagents: single siRNA against human genes
Duration: 3 days
Detection: 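Imaged Hoechst DNA stain sorts each cell into a cycle phase by DNA amount; per plate, G2 fraction set to 0% for non-targeting and 100% for GMNN siRNA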
Direction: G2 robust z-score and G2 cells, % of GMNN control: higher = more G2 cells, more excess DNA replication; raw share of cells in G2: higher = larger share of cells with G2 DNA content
Hit rule: 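An siRNA counts as active if its G2 robust z-score lies at least 5 MADs above the screen median; here such calls match roughly 38% of GMNN control or more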
Here is an unselected part of about 59,000 reagents. Of all reagents, about 1,550 (2.6%) are marked active. 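G2 share is only a proxy for re-replication; each gene was hit by three separate siRNAs, and active genes were retested.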 The raw values are shown without normalisation. Reagents against one gene are numbered here. Not stated in the record: the amount of reagent.

Gene	reagent	G2 robust z-score	G2 cells, % of GMNN control	raw share of cells in G2 (%)	outcome
PRAMEF14 (PRAME family member 14)	1	-0.319	0.724	4.38	inactive
PRAMEF14 (PRAME family member 14)	2	0.889	9.22	6.33	inactive
PRAMEF14 (PRAME family member 14)	3	-0.665	-1.71	2.55	inactive
GPC4 (glypican 4)	1	0.259	4.79	7.55	inactive
GPC4 (glypican 4)	2	0.178	4.22	5.63	inactive
GPC4 (glypican 4)	3	0.0455	3.29	4.81	inactive
SHOX (SHOX homeobox)	1	3.67	28.8	15.4	inactive
SHOX (SHOX homeobox)	2	-0.664	-1.7	3.96	inactive
SHOX (SHOX homeobox)	3	2.24	18.7	10.1	inactive
ACSL5 (acyl-CoA synthetase long chain family member 5)	1	-1.32	-6.34	1.9	inactive
ACSL5 (acyl-CoA synthetase long chain family member 5)	2	-1.22	-5.6	1.65	inactive
ACSL5 (acyl-CoA synthetase long chain family member 5)	3	-0.491	-0.485	5.73	inactive
ZC3H12C (zinc finger CCCH-type containing 12C)	1	1.09	10.6	8.59	inactive
ZC3H12C (zinc finger CCCH-type containing 12C)	2	2.64	21.6	9.76	inactive
ZC3H12C (zinc finger CCCH-type containing 12C)	3	-0.179	1.71	3.47	inactive
RASSF2 (Ras association domain family member 2)	1	-1.03	-4.27	1.74	inactive
RASSF2 (Ras association domain family member 2)	2	0.354	5.46	6.97	inactive
RASSF2 (Ras association domain family member 2)	3	-0.137	2	5.96	inactive
DEFB127 (defensin beta 127)	1	-0.758	-2.36	3.04	inactive
DEFB127 (defensin beta 127)	2	0.747	8.22	5.45	inactive
DEFB127 (defensin beta 127)	3	-0.197	1.58	3.62	inactive
RPRM (reprimo, TP53 dependent G2 arrest mediator homolog)	1	-0.792	-2.61	3.32	inactive
RPRM (reprimo, TP53 dependent G2 arrest mediator homolog)	2	0.725	8.07	8.31	inactive
RPRM (reprimo, TP53 dependent G2 arrest mediator homolog)	3	0.474	6.3	5.02	inactive
PSTPIP2 (proline-serine-threonine phosphatase interacting protein 2)	1	0.992	9.95	9.06	inactive
PSTPIP2 (proline-serine-threonine phosphatase interacting protein 2)	2	1.64	14.5	10.3	inactive
PSTPIP2 (proline-serine-threonine phosphatase interacting protein 2)	3	-0.11	2.19	5.49	inactive
PVRIG (PVR related immunoglobulin domain containing)	1	0.496	6.46	4.4	inactive
PVRIG (PVR related immunoglobulin domain containing)	2	0.0811	3.54	6.12	inactive
PVRIG (PVR related immunoglobulin domain containing)	3	1.04	10.3	9.23	inactive
POLD2 (DNA polymerase delta 2, accessory subunit)	1	0.863	9.04	8.09	inactive
POLD2 (DNA polymerase delta 2, accessory subunit)	2	0.564	6.93	7.33	inactive
POLD2 (DNA polymerase delta 2, accessory subunit)	3	-0.142	1.97	4.8	inactive
ANXA7 (annexin A7)	1	-0.56	-0.971	4.39	inactive
ANXA7 (annexin A7)	2	-0.306	0.817	5.36	inactive
ANXA7 (annexin A7)	3	-1.18	-5.31	2.02	inactive
BRSK1 (BR serine/threonine kinase 1)	1	0.0398	3.25	6.6	inactive
BRSK1 (BR serine/threonine kinase 1)	2	-0.903	-3.39	3.96	inactive
BRSK1 (BR serine/threonine kinase 1)	3	-0.287	0.949	3.99	inactive
TRIM61 (tripartite motif containing 61)	1	-0.907	-3.41	4.43	inactive
TRIM61 (tripartite motif containing 61)	2	2.47	20.4	12.9	inactive
TRIM61 (tripartite motif containing 61)	3	-0.0413	2.68	5.26	inactive
ZNF28 (zinc finger protein 28)	1	1.48	13.4	7.97	inactive
ZNF28 (zinc finger protein 28)	2	-1.21	-5.53	3.53	inactive
ZNF28 (zinc finger protein 28)	3	0.0293	3.17	4.67	inactive
SLC25A20	1	1.53	13.7	9.39	inactive
SLC25A20	2	-1.04	-4.34	3.53	inactive
SLC25A20	3	-0.835	-2.91	2.91	inactive

In a second layout: entries from further up
Gene,reagent,G2 robust z-score,"G2 cells, % of GMNN control",raw share of cells in G2 (%),outcome
ANXA7 (annexin A7),3,-1.18,-5.31,2.02,inactive
BRSK1 (BR serine/threonine kinase 1),1,0.0398,3.25,6.6,inactive
BRSK1 (BR serine/threonine kinase 1),2,-0.903,-3.39,3.96,inactive
BRSK1 (BR serine/threonine kinase 1),3,-0.287,0.949,3.99,inactive
TRIM61 (tripartite motif containing 61),1,-0.907,-3.41,4.43,inactive
